Reference: article PMC7414696
No constants are given. Whether binding was seen depends on the method and setting. In cells and extracts the contact can be indirect. Some binding calls cover weakened binding; strength is not graded here.

Experiments:
[1] = molecular target: GFP-tagged mouse Capzb2 expressed in PC-3 cells (mouse) (UniProt P47757); assay: FRET or BRET; fluorescence-lifetime imaging microscopy (FLIM) of fixed PC-3 cells co-overexpressing GFP-Capzb2 (alone or with His-Capza1) and PIM1-RFP; lifetime of GFP fluorescence; room temperature
[2] = molecular target: Endogenously expressed CAPZB2 of PC-3 cells (human (endogenous in PC-3)) (UniProt P47756); assay: proximity ligation; PC-3 cells on coverslips, transiently co-transfected or left untransfected, fixed with 4% PFA, permeabilized; Duolink In Situ Orange Starter Kit Mouse/Rabbit
[3] = molecular target: Flag-tagged mouse Capzb2 expressed in PC-3 cells (mouse) (UniProt P47757); assay: as above
[4] = molecular target: Flag-tagged mouse Capzb2 expressed in PC-3 cells (mouse) (UniProt P47757); assay: co-IP; PC-3 cells co-transfected with pcDNA-PIM1, His-Capza1 and Flag-Capzb2 in different combinations, lysed after 48 h (50 mM Tris pH 7.5, 100 mM NaCl, 1% NP-40, 10% glycerol, 1 mM EDTA); Flag-tagged protein precipitated with anti-Flag M2 agarose, 1 h at +4 °C, four washes; Western blotting
[5] = molecular target: His-tagged human capping protein alpha 2 subunit (CAPZA2), bacterially produced (human) (UniProt P47755); assay: pull-down; alpha and beta subunits co-expressed in E. coli BL21 from one Duet vector; lysate (50 mM Tris-HCl pH 7.5, 250 mM NaCl, 10 mM imidazole) rotated 30 min at +4 °C with HisLink resin, washed four times, eluted with 300 mM imidazole; SDS-PAGE with Page Blue staining

For “RFP-tagged human PIM1 (Tag-PIM1-RFP) expressed in PC-3 cells (from UniProt P11309 1-313) (enzyme)”, the binding [1] was “binds”.
For “Endogenously expressed PIM1 of PC-3 cells (from UniProt P11309 1-313) (enzyme)”, the binding [2] was “binds”.
In the case of “Human PIM1 expressed in PC-3 cells from pcDNA3.1/PIM1-V5-His (from UniProt P11309 1-313) (enzyme)”, the binding [3] is reported as “binds” and the binding [4] is reported as “binds”.
With “Mouse capping protein beta 2 subunit (Capzb2), bacterially produced (from UniProt P47757-2 1-272)” the binding [5] was “binds”.
